# Primary screen of a compound library

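Viability assay of Plasmodium falciparum sporozoites; the read-out is not stated. The concentration is filed as 10 mM, unlikely as a test dose, so the dose is not known. The record gives no direction; compounds that gave an IC50 in retests scored well above the rest, so higher reads as lower viability. Strong results were mostly tested again. Size under these conditions: about 34,000 compounds, about 280 of them at 50% or above in at least one test.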

The filed quantity is “Percent Effect” (%). How 0% and 100% were set is not recorded. Most values in the screen are low, and negative values occur. Compounds were drawn at random from those tested, without regard to their results. Two or more numbers in one place are separate tests of the same structure; such repeats can differ widely.

Compound	effect
CCn1nnc(NCc2ccccc2OCc2ccc(Cl)cc2)n1	-15.49
CCC(=O)N1CCC(c2nc3c(c(NC)n2)CN(C)CC3)C1 (centres undefined)	4.207
Cc1cnc(N2CCCn3c(nnc3CN(C)C(C)C)C2)nc1.O=C(O)C(F)(F)F	-21.14
CC(=O)N1CCC(c2nc3ccc(NC4CCC4)cn3n2)CC1.O=C(O)C(F)(F)F	-2.532
CCOc1ccc(CCCC(=O)N2CCC(C(=O)NC)C2)cc1C (centres undefined)	-7.967
O=C(c1cnccn1)N1CCCC(c2cccc(-n3ccnc3)n2)C1 (centres undefined)	-0.6695
O=C(c1ccoc1)N1CCOCC2(CCN(Cc3cccs3)C2)C1 (centres undefined)	0.6745
Cc1nnc2n1CCN(C(=O)c1cc(C)n(-c3ccccn3)c1C)C2	-4.516 & -0.613 & 8.394
Cc1ccsc1C(=O)NCc1ccnc(OCC(F)(F)F)c1	2.085
O=C(NCc1nn(-c2ccccc2)c2c1CCC2)NCC1COCCO1 (centres undefined)	13.65
CC(C)C(=O)NC1COC2(CCN(C(=O)c3ccc[nH]3)CC2)C1 (centres undefined)	15.06
O=C(O)C(F)(F)F.[H][C@@]12COC[C@]1([H])[C@@H](OCC(=O)N(C)C)CN2Cc1nccs1	11.56
CNc1cc(C)nc(N2CCC3(CC2)[C@H](O)C[C@@H]3OCCO)n1	-17.19
Cc1ccc(-c2nc(CCNC(=O)NC3CCN(C)CC3)co2)cc1	-9.559
CC(C)Cc1cc(NC(=O)c2n[nH]c3ccccc23)n(C)n1	-3.318
COCCCN1CCN(CC2CCCO2)CC1 (centres undefined)	7.108
O=C(c1ccoc1)N1CCC(NCc2cccnc2)CC1	-14.4
CC(C)NC(=O)N1CCCn2cnc(CN3CCCC3=O)c2C1	0.614
Cc1nc(N2CCN(C(=O)C3CC3)CC2)c2c(n1)c(C)nn2C	16.89
O=C(c1ccsc1)N1C[C@@H](CN2CCCC2)[C@@H](CO)C1	3.433
Cc1cnn(C2CN(CCCOc3ccc(C#N)cc3)C2)c1	-1.99
O=C(O)C(F)(F)F.O=C(c1cnccn1)N1CCCC2(CCN(c3ccccn3)C2)C1 (centres undefined)	-18.94
C1CCC(c2nc3c(c(N4CCN5CCCC5C4)n2)CCNCC3)C1 (centres undefined)	-1.954
O=C(O)C(F)(F)F.O=C(O)C(F)(F)F.[H][C@@]12C[C@H](C(=O)N3CCCO3)CN(Cc3cccnc3)[C@]1([H])CCO2	-10.97
COc1ccccc1CN1CCC(O)(Cn2ccc3ncccc32)CC1	-15.51
CCc1nc(CN2CCCN(C(=O)C(C)n3ccnc3)CC2)cs1 (centres undefined)	-4.415
CC1(C)CNC(=O)CN(C(=O)Cc2ccccc2)C1	7.177
Cc1cc(-c2cnc(NCc3ccc4c(c3)OCO4)nc2C(C)C)on1	0.1308
CC1(C)OCC(CNC(=O)c2cnn(-c3ccc(Cl)cc3)c2N)O1 (centres undefined)	-8.009
Cn1ncc2c(N3CCCC(C)(O)C3)nc(-c3cccnc3)nc21 (centres undefined)	-8.54
Cc1nnc2n1CCN(CCOc1cccc(C#N)c1)C2	-19.84 & 3.297 & -15.37
Cc1ccc(OCC(=O)N2CCCC(n3nc(C)nc3C)C2)cc1 (centres undefined)	-2.798
CCc1nc(CN2CCCN(C(=O)C3CCOCC3)CC2)cs1	7.561
CC(NC(=O)C1=NN(C)C(=O)CC1)c1ccc(Cl)cc1Cl (centres undefined)	-10.04
O=c1c2sccc2nc2n1CCN(Cc1cccs1)CC2	-7.701
CCC(CN1CCCC1)n1cncc1-c1cnn(Cc2ccccc2)c1.Cl (centres undefined)	11.53
[H][C@@]12CCC(=O)N(c3ccccc3)[C@]1([H])CCN2C(=O)c1cccs1	12.41
c1cnn(CC2CN(Cc3csc(C4CCCCC4)n3)CCO2)c1 (centres undefined)	-3.764
CCc1n[nH]c(C2CN(CCc3cccs3)CCO2)n1 (centres undefined)	-45.68 & 0.9547 & -27.33
CCn1cc(NC(=O)NCC(O)c2ccccc2)cn1 (centres undefined)	-1.891
COc1ccc(C(=O)N2CCCC(n3nc(C)nc3C)C2)c(OC)c1 (centres undefined)	-2.728
O=C(O)C(F)(F)F.O=C(O)C(F)(F)F.[H][C@]12C[C@H](C(=O)NC)N(C(C)C)[C@@]1([H])CN(C(=O)c1ccc(C)nc1)C2	-13.54
Cc1ccc(CNC(=O)Nc2cc(C(F)(F)F)c[nH]c2=O)cn1	-7.391
Cc1nc(N2CCCC2)nc2c1CCN(C(=O)CC1CC1)CC2	-10.31
CC(=O)N1CCCN(C(=O)NCCCn2cncn2)CC1	6.322
COCC1c2nnn(CC3CC3)c2CCN1C(=O)c1ccnnc1 (centres undefined)	-17.3
CN(C)C(=O)CCC(=O)NCc1cccnc1-n1cnc2ccccc21	-13.41
Cc1c(-c2cc(C(=O)N3CCc4ncc(Cl)cc4C3)on2)cnn1C	3.017
CCOc1ccc(CN(CC)C(=O)c2ccc(C)[nH]c2=O)cc1OC	1.622
CCc1ncnc2c1CCN(CCOC)CC2.O=C(O)C(F)(F)F	8.757
CN(C)C(=O)CN1CCCCC1c1nc(N)ncc1-c1cccc(F)c1 (centres undefined)	-2.884
COc1ccccc1CC(=O)N1CCC(NCc2cccnc2)CC1	4.595
CN(Cc1ccco1)Cc1ccccc1CNC(=O)c1ccc[nH]1	-17.53
Cc1nc(CNCC2CN(C3CC3)CCO2)cs1 (centres undefined)	1.466
CC(C)N(Cc1cccc(Cl)c1)Cc1nnsc1Cl	-8.686
Cn1ccnc1CN1CCN(c2ccc(C#N)cn2)CC1	-0.5848
N#CC1COCCN1S(=O)(=O)c1ccc(F)c(Br)c1 (centres undefined)	-1.647
Cc1nc[nH]c1CN(Cc1ccc(F)cc1)C1CC(C)(C)NC(C)(C)C1	-1.295
COc1cccc(N2CCN(C(=O)C(OC)c3ccccc3)CC2=O)c1 (centres undefined)	-2.662
CC(C)n1cnnc1CN(C)C(=O)c1cccnc1O	-22.15
Cn1cc(C(=O)N2CCCC(Cc3cnccn3)C2)cn1 (centres undefined)	7.705
CCc1nc(CN2CCOC(Cn3nc(C)cc3C)C2)no1 (centres undefined)	1.891
O=C(Cc1ccc(Cl)cc1)N[C@@H]1CCC[C@@H](O)[C@@H]1O	5.069
CN(C)C(=O)C1CCC2(CCN(C(=O)Nc3ccccc3)CC2)O1 (centres undefined)	-5.232
Cn1cnnc1C1CCCN(C(=O)c2cc3ccccc3[nH]2)C1 (centres undefined)	8.061
CN(C)c1nc2c(c(N3CCC(O)CC3)n1)CN(CC1CCNC1)CC2 (centres undefined)	2.706
CN(C)C(=O)N1CCC2(CCCN(c3ncccn3)C2)C1.O=C(O)C(F)(F)F (centres undefined)	6.93
[H][C@@]12CCCO[C@]1([H])[C@H](N(C)Cc1cccnc1)CN2c1ccccn1	14.33

7 of the entries, repeated:

Compound,effect
COc1ccc(C(=O)N2CCCC(n3nc(C)nc3C)C2)c(OC)c1 (centres undefined),-2.728
O=C(c1cnccn1)N1CCCC(c2cccc(-n3ccnc3)n2)C1 (centres undefined),-0.6695
CC(=O)N1CCC(c2nc3ccc(NC4CCC4)cn3n2)CC1.O=C(O)C(F)(F)F,-2.532
CN(C)C(=O)CCC(=O)NCc1cccnc1-n1cnc2ccccc21,-13.41
CC(NC(=O)C1=NN(C)C(=O)CC1)c1ccc(Cl)cc1Cl (centres undefined),-10.04
CCn1cc(NC(=O)NCC(O)c2ccccc2)cn1 (centres undefined),-1.891
Cc1cnn(C2CN(CCCOc3ccc(C#N)cc3)C2)c1,-1.99

Measurements from “University of Dundee, Small-Polar-MMV Screening Library” (2021), ChEMBL document CHEMBL3988442.